Reference: the supplement of paper PMC8326762, “A Small Molecule Inhibitor of Pex3–Pex19 Interaction Disrupts Glycosome Biogenesis and Causes Lethality in Trypanosoma brucei” (Frontiers in Cell and Developmental Biology, 2021)
Where a name gives a salt, the structure may show the parent alone. The list shows a part of the results. This is a noisy data set.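 Optical density at 600 nm measured yeast growth. Because the two-hybrid strains grew without histidine, growth required Pex3–Pex19 binding. Trypanosome selectivity meant a compound inhibited the trypanosome-pair strain's growth by more than 65% but the human-pair strain's by less than 65%.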

How the values were obtained:
[1] = system: Saccharomyces cerevisiae HF7c pdr5Δ; assay: general growth inhibition of yeast HF7c pdr5Δ in -Leu -Trp medium, relative to DMSO; higher = stronger general growth inhibition; settings: 100 µM; 24 h
[2] = system: human PEX3-PEX19 interaction (yeast two-hybrid); assay: growth inhibition of yeast two-hybrid strain reporting HsPex3-HsPex19 interaction, relative to DMSO; higher = stronger inhibition of human Pex3-Pex19 interaction / growth; settings: 100 µM; 24 h; 3-aminotriazole 10 mM
[3] = system: T. brucei Pex3-Pex19 interaction (yeast two-hybrid); assay: growth inhibition of yeast two-hybrid strain reporting TbPex3-TbPex19 interaction, relative to DMSO; higher = stronger inhibition of T. brucei Pex3-Pex19 interaction / growth; settings: 100 µM; 24 h

Row | Structure (SMILES) | general growth inhibition [1] | growth inhibition [2] | growth inhibition [3]
1 | C=CCc1ccccc1OCC(O)CNC(C)C (stereo not drawn) [Alprenolol hydrochloride] | -6.16% | -19% | -24.9%
2 | COc1ccccc1N1CCN(CCCNc2c(C)c(=O)n(C)c(=O)n2C)CC1 [Urapidil, 5-Methyl-] | 11.8% | 6.91% | 37.5%
3 | CCc1ccc(/C=C2/SC(=S)NC2=O)cc1 | 34.6% | 7.94% | 21.3%
4 | CC(C)[N+](C)(CCOC(=O)C1c2ccccc2Oc2ccccc21)C(C)C [Propantheline bromide] | 41.8% | 50% | 58.1%
5 | O=C(Nc1ccccc1C(=O)NC1CCCCNC1=O)c1cc2ccccc2s1 (stereo not drawn) | 48.3% | 46.6% | 57.5%
6 | CC(C(=O)O)c1ccc(CC2CCCC2=O)cc1 (stereo not drawn) [loxoprofen] | 43.4% | 40.9% | 64.8%
7 | CCCCNC(=O)NS(=O)(=O)c1ccc(C)cc1 [Tolbutamide] | 48.3% | 47.8% | 63.1%
8 | O=[N+]([O-])c1ccc(CSc2ncnc3c2ncn3[C@@H]2O[C@H](CO)[C@@H](O)[C@H]2O)cc1 [S-(4-Nitrobenzyl)-6-thioinosine] | 40.7% | 46.7% | 72.9%
9 | c1ccc2c(c1)CCC[C@H]2Nc1nc2ccccc2[nH]1 [NS8593 hydrochloride] | 37.3% | 50.8% | 60.2%
10 | CC(C)(C)c1ccc(S(=O)(=O)/C=C/C#N)cc1 | 91.1% | 88.8% | 84.2%
11 | CNC(=O)[C@H]1O[C@@H](n2cnc3c(NCc4cccc(I)c4)ncnc32)[C@H](O)[C@@H]1O | 34.1% | 41.1% | 66.4%
12 | O=C(O)c1cc2cc(F)ccc2[nH]1 [5-Fluoroindole-2-carboxylic acid] | 24.1% | 21.3% | 46.1%
13 | c1cnc(N2CCN(Cc3ccc4c(c3)OCO4)CC2)nc1 [Piribedil maleate] | 15.8% | 16.8% | 42.6%
14 | CCC1(C)CC(=O)NC1=O (stereo not drawn) [Ethosuximide] | 32.9% | 37.7% | 59.6%
15 | c1cnc2c(c1)ccc1cccnc12 [1,10-Phenanthroline monohydrate] | 89.9% | 82.9% | 83.2%
16 | COC1=C(OC)C(=O)c2ccccc2C1=O [2,3-Dimethoxy-1,4-naphthoquinone] | 43.3% | 69.5% | 82.5%
17 | CC(C)[C@H]1c2ccc(F)cc2CC[C@@]1(CCN(C)CCCc1nc2ccccc2[nH]1)OC(=O)C1CC1 | 46.4% | 72.8% | 73.7%
18 | Cc1oncc1C(=O)Nc1ccc(C(F)(F)F)cc1 [Leflunomide] | 23.4% | 6.43% | 15.7%
19 | O=C(O)[C@H]1NCCC[C@H]1C(=O)O (racemic) [(±)-cis-Piperidine-2,3-dicarboxylic acid] | 25.1% | 18.8% | 48.5%

Row | Structure (SMILES) | general growth inhibition [1] | growth inhibition [2] | growth inhibition [3]
20 | O=C(O)/C=C/c1ccc(O)c(O)c1 [Caffeic Acid] | 43.4% | 43.3% | 64.1%
21 | CNC[C@H](O)c1ccc(O)c(O)c1 [(-)-Epinephrine bitartrate] | 36.7% | 36.1% | 52.9%
22 | CC(C)(C)[C@]1(O)CCN2C[C@H]3c4ccccc4CCc4cccc(c43)[C@@H]2C1 (racemic) [(±)-Butaclamol hydrochloride] | 44.7% | 46% | 62.3%
23 | CC(=O)N1CCN(c2ccc(OCC3COC(Cn4ccnc4)(c4ccc(Cl)cc4Cl)O3)cc2)CC1 (stereo not drawn) [Ketoconazole] | 85.4% | 80.5% | 80.8%
24 | NC(=O)NO [Hydroxyurea] | 39.6% | 39% | 64.6%
25 | N[C@H](CO)C(=O)O [D-Serine] | 49.2% | 49.4% | 66.8%
26 | CS(=O)(=O)c1cccc(CNc2nc(Nc3ccc4c(c3)CCC(=O)N4)ncc2C(F)(F)F)c1 | 41.6% | 46.6% | 58.1%
27 | O=C1NCN(c2ccccc2)C12CCN(CCCC(c1ccc(F)cc1)c1ccc(F)cc1)CC2 [Fluspirilene] | 27.7% | 33.4% | 52.2%
28 | Cc1c(-c2ccc(-c3ccccc3F)cc2)nc2ccc(F)cc2c1C(=O)O [Brequinar sodium salt hydrate] | 40.3% | 23% | 52.8%
29 | CCc1cncnc1N1CCN(Cc2nc3ccc(C(F)(F)F)cc3[nH]2)CC1 | 4.57% | -7.55% | 20.9%
30 | O=C(/C=C/c1ccc(O)cc1)c1ccc(O)cc1O [Isoliquiritigenin] | 36.8% | 16.8% | 32.8%
31 | C[C@]12C=CC(=O)C=C1CC[C@@H]1C2=CC[C@]2(C)[C@@H](C(=O)CN3CCN(c4cc(N5CCCC5)nc(N5CCCC5)n4)CC3)CC[C@@H]12 | 36.6% | 29.9% | 69.1%
32 | CN(C)C(N)=NCCC[C@H](N)C(=O)O [N^G,N^G-Dimethylarginine hydrochloride] | 31.2% | 45.3% | 57.9%
33 | CCN(CC)CCCCNc1ncc2cc(-c3c(Cl)cccc3Cl)c(NC(=O)NC(C)(C)C)nc2n1 | 6% | -9.45% | 21.2%
34 | CC[N+](C)(C)c1cccc(O)c1 [Edrophonium chloride] | 37.8% | 31.3% | 58.5%
35 | C#CCn1c(=O)c2c(ncn2C)n(C)c1=O [3,7-Dimethyl-1-propargylxanthine] | 31.7% | 43.2% | 68.7%
36 | Cc1ccc([N+](=O)[O-])cc1S(=O)(=O)N(C)C | 5.84% | 4.29% | 22.5%
37 | COc1cc(CNC(=O)CCCCCCC(C)C)ccc1O [Dihydrocapsaicin] | 38.7% | 22.3% | 71.5%
38 | COc1ccc(-c2cc3ncc(C)n3c(Nc3ncccc3C(N)=O)n2)cc1OC [BAY 61-3606 hydrochloride hydrate] | 48% | 43.8% | 65.1%

Three structures already listed, sorted by formula weight, smallest number first.
Row | Structure (SMILES) | general growth inhibition [1] | growth inhibition [2] | growth inhibition [3]
28 | Cc1c(-c2ccc(-c3ccccc3F)cc2)nc2ccc(F)cc2c1C(=O)O [Brequinar sodium salt hydrate] | 40.3% | 23% | 52.8%
38 | COc1ccc(-c2cc3ncc(C)n3c(Nc3ncccc3C(N)=O)n2)cc1OC [BAY 61-3606 hydrochloride hydrate] | 48% | 43.8% | 65.1%
31 | C[C@]12C=CC(=O)C=C1CC[C@@H]1C2=CC[C@]2(C)[C@@H](C(=O)CN3CCN(c4cc(N5CCCC5)nc(N5CCCC5)n4)CC3)CC[C@@H]12 | 36.6% | 29.9% | 69.1%

Continuation.

Row | Structure (SMILES) | general growth inhibition [1] | growth inhibition [2] | growth inhibition [3]
39 | Nc1ncnc2c1ncn2C1CCCC1 [9-cyclopentyladenine] | 42.6% | 52.4% | 67.1%
40 | O=c1ccc2c(OCCCCc3ccccc3)c3ccoc3cc2o1 [Psora-4] | 43.6% | 34% | 50.5%
41 | CSc1nc(N)c2ncn([C@@H]3O[C@H](COP(=O)(O)OP(=O)(O)O)[C@H](O)C3O)c2n1 (stereo partly drawn) | 34% | 31.9% | 59.3%
42 | O=C(CCCN1CCC(O)(c2cccc(C(F)(F)F)c2)CC1)c1ccc(F)cc1 [Trifluperidol hydrochloride] | 44.3% | 36% | 62.4%
43 | C[N+]1(C)CCC(OC(=O)C(c2ccccc2)c2ccccc2)CC1 [4-DAMP methiodide] | 5.05% | 4.77% | 30.2%
44 | CC1=C(C(=O)O)N2C(=O)[C@@H](NC(=O)[C@H](N)c3ccccc3)[C@H]2SC1 [Cephalexin hydrate] | 33.2% | 34.1% | 58.5%
45 | CCCCCCCCCC(=O)NC(CN1CCOCC1)[C@H](O)c1ccccc1 (mixture of isomers) | 17.4% | 19.5% | 33.9%
46 | CCCCCCCCCCCCCCCCCCN(CCCCCCCCCCCCCCCCCC)CCCN(CCO)CCO [Avridine] | 51.1% | 55.7% | 63%
47 | N[C@@H](CC(=O)O)C(=O)O [L-Aspartic acid] | 45.3% | 37.4% | 57.2%
48 | CC(C)NCC(O)COc1cccc2[nH]ccc12 (stereo not drawn) [Pindolol] | 10.9% | 5.08% | 36%
49 | CC(=O)C(C)=O [2,3-Butanedione] | 39.5% | 41.4% | 65.2%
50 | CC(C(O)c1ccc(O)cc1)N1CCC(Cc2ccccc2)CC1 (stereo not drawn) [Ifenprodil tartrate] | 33.3% | 38.2% | 47.6%
51 | COc1ccccc1N1CCN(CCN(C(=O)C2CCCCC2)c2ccccn2)CC1 | 52.6% | 9.53% | 69.2%
52 | NS(=O)(=O)c1ccc(-n2nc(C(F)(F)F)cc2-c2ccc(Cl)cc2)cc1 | 51.2% | 57.8% | 52.5%
53 | COc1ccc(C2(O)OC(=O)C(c3ccc4c(c3)OCO4)=C2Cc2cc(OC)c(OC)c(OC)c2)cc1 (stereo not drawn) | 38.7% | 22.1% | 39.7%
54 | NC(=O)CNCCC(c1ccccc1)c1ccccc1 [N-(3,3-Diphenylpropyl)glycinamide] | 9.09% | 27.2% | 45.5%
55 | C[C@H](Cc1ccc(O)c(O)c1)[C@@H](C)Cc1ccc(O)c(O)c1 | 45% | 36.5% | 35.1%
56 | COC(=O)c1c(C)[nH]c(C)c1C(=O)c1ccccc1Cc1ccccc1 | 40.1% | 32.6% | 35.9%

Random excerpt: 2 compounds from above
Row | Structure (SMILES) | general growth inhibition [1] | growth inhibition [2] | growth inhibition [3]
43 | C[N+]1(C)CCC(OC(=O)C(c2ccccc2)c2ccccc2)CC1 [4-DAMP methiodide] | 5.05% | 4.77% | 30.2%
55 | C[C@H](Cc1ccc(O)c(O)c1)[C@@H](C)Cc1ccc(O)c(O)c1 | 45% | 36.5% | 35.1%
